Earlier results on one molecule are cited in patent publication US11413241B2, “Method for preparing a composition with a low dissolved oxygen content, comprising acetaminophen, and optionally one or more NSAIDs, and a composition obtained thereof” (Hyloris Developments SA, priority 2017, dated 2022).

The conditions of the data set: background statement; cited from earlier work.

Turning to `CC(C)Cc1ccc(C(C)C(=O)O)cc1` (stereo not shown) [ibuprofen], the solubility in water result is reported as “very poorly soluble”.
